In PubChem BioAssay AID2685 (National Center for Advancing Translational Sciences (NCATS), 2010):
The list shows a part of the results. Further columns of the screen follow, without active or inactive calls. Compounds called inactive in the main read-out are mostly missing here. The note in brackets gives the kind of curve behind each potency; many fits are weak.

Experiment: qHTS Assay for Lipid Storage Modulators in Drosophila S3 Cells;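 as to cell number change: cells counted by Cell Tracker Red CMTPX staining in the red channel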
Conditions: BODIPY lipid droplet fluorescence, 18-24 h; for cell number change: measured here: cell count max response, cells fed with added oleic acid
How it was run: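 Drosophila S3 cells loaded with oleic acid (400 uM, as added) and compounds at several concentrations; lipid droplets imaged by 488-nm laser-scanning cytometry, 500–530 nm intensity and object ratio to cell channel. Percent activity normalized to 20 uM Triacsin C.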

[1] = measured here: lipid fluorescence (Fed channel) AC50, cells fed with added oleic acid
[2] = measured here: cell number channel AC50, cells fed with added oleic acid

SMILES | cell number change | AC50 [1] | AC50 [2]
CCc1nc2ccc(Cc3ccc4nc(CC)[nH]c4c3)cc2[nH]1 | -10.8% | 3.26 µM [rising, single point] | 
Cc1cc(C)n2c(SCC(=O)N(CC(C)C)c3c(N)n(CC(C)C)c(=O)[nH]c3=O)nnc2n1 | 69.6% | 29.1 µM [rising, single point] | 
COc1c(C)cc(S(=O)(=O)N2CCOCC2)c(C)c1C | 11.5% | 7.31 µM [rising, partial curve] | 
CCCOc1ccc(-c2nc(SCc3ccccc3)[nH]c(=O)c2C#N)cc1OC | -13.4% |  | 
COc1cccc(C2/C(=C(\O)c3ccc4c(c3)OCO4)C(=O)C(=O)N2CCN(C)C)c1OC (centres undefined) | 122% |  | 25.9 µM [rising, partial curve]
Cc1ccc(N2C(=O)CC(Nc3cccc4ccccc34)C2=O)cc1 (centres undefined) | -3.1% | 6.51 µM [falling, single point] | 
CCCN=Cc1sc2ccc(OCC)cc2c1O | -18.3% | 10.3 µM [rising, partial curve, poor fit] | 
FC(F)(F)c1ccc(NCCc2ccccc2)nc1 | -2.89% |  | 
Cc1ccc(C(=O)CCC(=O)Nc2ccccc2C)cc1C | 34.7% |  | 0.0517 µM [rising, full curve, poor fit]
CC(C)=CC(=O)Nc1ccc(S(=O)(=O)Nc2onc(C)c2C)cc1 | 5.03% | 18.4 µM [rising, partial curve] | 
CCCCn1nc2cc(C(=O)NCc3ccccc3OC)ccc2c1OCC | -19.1% | 29.1 µM [falling, single point] | 
Cc1ccc(S(=O)(=O)N2CCCCC2CCNC(=O)C(=O)NC2CCCC2)cc1 (centres undefined) |  | 0.103 µM [falling, full curve] | 
Nc1[nH][nH]c(=O)c1N=Nc1ccc2c(c1)OCO2 | -16.7% | 6.51 µM [falling, single point] | 
COc1ccc(Cc2nnc(NC(=O)Nc3ccc(C)cc3)s2)cc1OC | 18.4% | 0.0517 µM [rising, full curve] | 
COc1ccc(CCNC(=O)COC(=O)c2cccs2)cc1OC | -13.5% | 25.9 µM [falling, single point] | 2.06 µM [falling, single point]
Cc1cc(C(=O)Nc2ccc3c(c2)OCO3)no1 | -21.1% |  | 
CCOc1ccc(C(=O)NCC(C)NC(=O)c2ccc(OCC)cc2)cc1 (centres undefined) | 24.6% | 0.164 µM [rising, full curve, poor fit] | 
CCc1ccc(N(C(=O)CNC(=O)c2ccco2)C(C(=O)NCC2CCCO2)c2ccccc2)cc1 (centres undefined) | 15.2% |  | 
O=C1c2ccccc2C(=O)N1CCCCSc1nnnn1-c1ccccc1 | -33.7% |  | 29.1 µM [falling, single point]

Fetched by compound from the entries so far:
SMILES | cell number change | AC50 [1] | AC50 [2]
Cc1ccc(N2C(=O)CC(Nc3cccc4ccccc34)C2=O)cc1 (centres undefined) | -3.1% | 6.51 µM [falling, single point] | 
COc1c(C)cc(S(=O)(=O)N2CCOCC2)c(C)c1C | 11.5% | 7.31 µM [rising, partial curve] | 
